Source: PubChem BioAssay AID1259254 (NCATS, 2017)

Aim: 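Genome-wide screen for genes that prevent DNA re-replication in cancer cells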 (primary screen)
Cell system: human HCT116 colorectal cancer cells
Knock-down reagent: single siRNA against human genes
Time to read-out: 3 days
Measurement: 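Imaged Hoechst DNA stain sorts each cell into a cycle phase by DNA amount; per plate, G2 fraction set to 0% for non-targeting and 100% for GMNN siRNA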
Reading the numbers: G2 robust z-score and G2 cells, % of GMNN control: higher = more G2 cells, more excess DNA replication
Call rule: 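Active siRNAs have a G2 robust z of 5 or more median absolute deviations over the median, which in these data means about 38% or higher of GMNN control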
The deposit covers about 59,000 reagents; below is an unselected part. About 1,550 of them (2.6%) were called active. 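G2 share is only a proxy for re-replication; each gene was hit by three separate siRNAs, and active genes were retested.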 Not all columns of the deposit are shown. Reagent sequences are not shown. Not given: the amount of reagent.

PLA2G3 (GeneID 50487) [SID160739604]
- G2 robust z-score: -0.216
- G2 cells, % of GMNN control: 1.45
- activity call: inactive

PLA2G3 (GeneID 50487) [SID160739605]
- G2 robust z-score: 0.764
- G2 cells, % of GMNN control: 8.34
- activity call: inactive

PLA2G3 (GeneID 50487) [SID160739606]
- G2 robust z-score: 2.51
- G2 cells, % of GMNN control: 20.7
- activity call: inactive

IRGC (GeneID 56269) [SID160724478]
- G2 robust z-score: -0.183
- G2 cells, % of GMNN control: 1.68
- activity call: inactive

IRGC (GeneID 56269) [SID160724479]
- G2 robust z-score: -0.589
- G2 cells, % of GMNN control: -1.18
- activity call: inactive

IRGC (GeneID 56269) [SID160745002]
- G2 robust z-score: 0.0376
- G2 cells, % of GMNN control: 3.23
- activity call: inactive

WDR4 (GeneID 10785) [SID160729215]
- G2 robust z-score: -0.965
- G2 cells, % of GMNN control: -3.82
- activity call: inactive

WDR4 (GeneID 10785) [SID160729216]
- G2 robust z-score: -0.131
- G2 cells, % of GMNN control: 2.05
- activity call: inactive

WDR4 (GeneID 10785) [SID160729217]
- G2 robust z-score: 0.175
- G2 cells, % of GMNN control: 4.2
- activity call: inactive

IFNLR1 (GeneID 163702) [SID160730681]
- G2 robust z-score: 0.419
- G2 cells, % of GMNN control: 5.92
- activity call: inactive

IFNLR1 (GeneID 163702) [SID160760063]
- G2 robust z-score: 2.45
- G2 cells, % of GMNN control: 20.2
- activity call: inactive

IFNLR1 (GeneID 163702) [SID160760064]
- G2 robust z-score: -0.916
- G2 cells, % of GMNN control: -3.48
- activity call: inactive

SCYL1 (GeneID 57410) [SID160745953]
- G2 robust z-score: 0.469
- G2 cells, % of GMNN control: 6.27
- activity call: inactive

SCYL1 (GeneID 57410) [SID160745954]
- G2 robust z-score: 0.468
- G2 cells, % of GMNN control: 6.26
- activity call: inactive

SCYL1 (GeneID 57410) [SID160745955]
- G2 robust z-score: 8.92
- G2 cells, % of GMNN control: 65.7
- activity call: active

TMEM100 (GeneID 55273) [SID160743400]
- G2 robust z-score: -0.658
- G2 cells, % of GMNN control: -1.66
- activity call: inactive

TMEM100 (GeneID 55273) [SID160743401]
- G2 robust z-score: 0.468
- G2 cells, % of GMNN control: 6.26
- activity call: inactive

TMEM100 (GeneID 55273) [SID160743402]
- G2 robust z-score: 0.737
- G2 cells, % of GMNN control: 8.15
- activity call: inactive

ZBTB43 (GeneID 23099) [SID160730827]
- G2 robust z-score: -0.627
- G2 cells, % of GMNN control: -1.44
- activity call: inactive

ZBTB43 (GeneID 23099) [SID160735450]
- G2 robust z-score: 1.41
- G2 cells, % of GMNN control: 12.9
- activity call: inactive

ZBTB43 (GeneID 23099) [SID160735451]
- G2 robust z-score: -0.365
- G2 cells, % of GMNN control: 0.396
- activity call: inactive

FNDC3A (GeneID 22862) [SID160732240]
- G2 robust z-score: 4.44
- G2 cells, % of GMNN control: 34.2
- activity call: inactive

FNDC3A (GeneID 22862) [SID160732241]
- G2 robust z-score: 0.784
- G2 cells, % of GMNN control: 8.49
- activity call: inactive

FNDC3A (GeneID 22862) [SID160732725]
- G2 robust z-score: 0.349
- G2 cells, % of GMNN control: 5.42
- activity call: inactive

An excerpt from above, showing only “G2 robust z-score”:
FNDC3A (GeneID 22862) [SID160732240] = 4.44
FNDC3A (GeneID 22862) [SID160732241] = 0.784
FNDC3A (GeneID 22862) [SID160732725] = 0.349
